{"source": "the supplement of paper PMC8728848", "binders": {"B1": {"name": "Pwp6 (Candida glabrata) (protein)", "chain": "MGSSHHHHHHSSGLVPRGSHMASANLPKLTNICQIPDNVKKTSGFKGEIRRIGLFPPGGDYTYLLKFPSTGSTASDTISLTTKPQLSTSGWFPSLFGHTYFIKADLLVYMVAYFVPTETGEYTFKLVNSDDAAVMYVGNPSAFPCGSIDTWPEPRKEDINVCDKISASTKLYMEKGLAYPVRLVWYNGGGDGQFNAQFIDPSGTTHTDWNGYVWQYDACTDCDYK"}}, "assay_in_all_cases": "glycan array binding signal (z-score within array); higher = stronger binding", "settings_in_all_cases": "glycan notation: IUPAC condensed, linker removed", "key": {"[1]": {"target": "Man(a1-2)Man(a1-3)[Man(a1-2)Man(a1-6)]Man(a1-6)[Man(a1-2)Man(a1-2)Man(a1-3)]Man", "in_short": "(§1)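 From the Consortium for Functional Glycomics database, 3228 arrays were curated, keeping only those whose protein sequence was available. Binding is given as a within-array Z-score averaged across arrays sharing a protein sequence and across linkers. Negative Z-scores can be read as non-binding.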"}, "[2]": {"target": "Man(a1-2)Man(a1-3)[Man(a1-2)Man(a1-6)]Man(a1-6)[Man(a1-2)Man(a1-2)Man(a1-3)]Man(b1-4)GlcNAc(b1-4)GlcNAc", "in_short": "as §1"}, "[3]": {"target": "Man(a1-2)Man(a1-3)[Man(a1-6)]Man(a1-6)[Man(a1-2)Man(a1-3)]Man(b1-4)GlcNAc(b1-4)GlcNAc", "in_short": "as §1"}, "[4]": {"target": "Man(a1-2)Man(a1-6)[Man(a1-3)]Man(a1-6)[Man(a1-2)Man(a1-2)Man(a1-3)]Man", "in_short": "as §1"}, "[5]": {"target": "Man(a1-2)Man(a1-6)[Man(a1-3)]Man(a1-6)[Man(a1-2)Man(a1-2)Man(a1-3)]Man(b1-4)GlcNAc(b1-4)GlcNAc", "in_short": "as §1"}, "[6]": {"target": "Man(a1-3)[Man(a1-6)]Man", "in_short": "as §1"}, "[7]": {"target": "Man(a1-3)[Man(a1-6)]Man(a1-6)[Man(a1-2)Man(a1-3)]Man(b1-4)GlcNAc(b1-4)GlcNAc", "in_short": "as §1"}, "[8]": {"target": "Man(a1-3)[Man(a1-6)]Man(a1-6)[Man(a1-3)]Man", "in_short": "as §1"}, "[9]": {"target": "Man(a1-3)[Man(a1-6)]Man(a1-6)[Man(a1-3)]Man(b1-4)GlcNAc(b1-4)GlcNAc", "in_short": "as §1"}, "[10]": {"target": "Man(a1-3)[Man(a1-6)]Man(b1-4)GlcNAc(b1-4)GlcNAc", "in_short": "as §1"}, "[11]": {"target": "Man(a1-3)[Man(a1-6)]Man(b1-4)GlcNAc(b1-4)[Fuc(a1-6)]GlcNAc", "in_short": "as §1"}, "[12]": {"target": "Man(a1-6)Man", "in_short": "as §1"}, "[13]": {"target": "Man(b1-4)GlcNAc", "in_short": "as §1"}, "[14]": {"target": "MurNAc(b1-4)GlcNAc", "in_short": "as §1"}, "[15]": {"target": "Neu5Ac(a2-3)Gal", "in_short": "as §1"}, "[16]": {"target": "Neu5Ac(a2-3)Gal(b1-3)GalNAc", "in_short": "as §1"}, "[17]": {"target": "Neu5Ac(a2-3)Gal(b1-3)GalNAc(b1-3)Gal(a1-4)Gal(b1-4)Glc", "in_short": "as §1"}, "[18]": {"target": "Neu5Ac(a2-3)Gal(b1-3)GalNAc(b1-4)Gal(b1-4)Glc", "in_short": "as §1"}, "[19]": {"target": "Neu5Ac(a2-3)Gal(b1-3)GalNAc(b1-4)[Neu5Ac(a2-3)]Gal(b1-4)Glc", "in_short": "as §1"}, "[20]": {"target": "Neu5Ac(a2-3)Gal(b1-3)GalNAc(b1-4)[Neu5Ac(a2-8)Neu5Ac(a2-3)]Gal(b1-4)Glc", "in_short": "as §1"}, "[21]": {"target": "Neu5Ac(a2-3)Gal(b1-3)GalNAc6S", "in_short": "as §1"}, "[22]": {"target": "Neu5Ac(a2-3)Gal(b1-3)GlcNAc", "in_short": "as §1"}, "[23]": {"target": "Neu5Ac(a2-3)Gal(b1-3)GlcNAc(b1-2)Man", "in_short": "as §1"}, "[24]": {"target": "Neu5Ac(a2-3)Gal(b1-3)GlcNAc(b1-2)Man(a1-3)[GlcNAc(b1-4)][Neu5Ac(a2-3)Gal(b1-3)GlcNAc(b1-2)Man(a1-6)]Man(b1-4)GlcNAc(b1-4)GlcNAc", "in_short": "as §1"}, "[25]": {"target": "Neu5Ac(a2-3)Gal(b1-3)GlcNAc(b1-2)Man(a1-3)[Neu5Ac(a2-3)Gal(b1-3)GlcNAc(b1-2)Man(a1-6)]Man(b1-4)GlcNAc(b1-4)GlcNAc", "in_short": "as §1"}, "[26]": {"target": "Neu5Ac(a2-3)Gal(b1-3)GlcNAc(b1-2)[Neu5Ac(a2-3)Gal(b1-3)GlcNAc(b1-4)]Man(a1-6)[Neu5Ac(a2-3)Gal(b1-3)GlcNAc(b1-2)Man(a1-3)]Man(b1-4)GlcNAc(b1-4)GlcNAc", "in_short": "as §1"}, "[27]": {"target": "Neu5Ac(a2-3)Gal(b1-3)GlcNAc(b1-3)Gal(b1-3)GlcNAc", "in_short": "as §1"}, "[28]": {"target": "Neu5Ac(a2-3)Gal(b1-3)GlcNAc(b1-3)Gal(b1-4)GlcNAc", "in_short": "as §1"}, "[29]": {"target": "Neu5Ac(a2-3)Gal(b1-3)GlcNAc(b1-3)GalNAc", "in_short": "as §1"}, "[30]": {"target": "Neu5Ac(a2-3)Gal(b1-3)GlcNAc(b1-6)GalNAc", "in_short": "as §1"}, "[31]": {"target": "Neu5Ac(a2-3)Gal(b1-3)GlcNAc6S", "in_short": "as §1"}, "[32]": {"target": "Neu5Ac(a2-3)Gal(b1-3)[Fuc(a1-4)]GlcNAc", "in_short": "as §1"}, "[33]": {"target": "Neu5Ac(a2-3)Gal(b1-3)[Fuc(a1-4)]GlcNAc(b1-3)Gal(b1-3)[Fuc(a1-4)]GlcNAc", "in_short": "as §1"}, "[34]": {"target": "Neu5Ac(a2-3)Gal(b1-3)[Fuc(a1-4)]GlcNAc(b1-3)Gal(b1-4)[Fuc(a1-3)]GlcNAc", "in_short": "as §1"}, "[35]": {"target": "Neu5Ac(a2-3)Gal(b1-3)[GlcNAc(b1-6)]GalNAc", "in_short": "as §1"}, "[36]": {"target": "Neu5Ac(a2-3)Gal(b1-3)[Neu5Ac(a2-6)]GalNAc", "in_short": "as §1"}, "[37]": {"target": "Neu5Ac(a2-3)Gal(b1-3)[Neu5Ac(a2-6)]GlcNAc(b1-3)[Fuc(a1-3)[Gal(b1-4)]GlcNAc(b1-6)]Gal(b1-4)Glc", "in_short": "as §1"}}, "note": "Some of the results follow."}
{"binder": "B1", "values": [{"measurement": "glycan array binding signal (z-score)", "setting": "[1]", "value": -0.603}, {"measurement": "glycan array binding signal (z-score)", "setting": "[2]", "value": 0.029}, {"measurement": "glycan array binding signal (z-score)", "setting": "[3]", "value": -0.516}, {"measurement": "glycan array binding signal (z-score)", "setting": "[4]", "value": -0.505}, {"measurement": "glycan array binding signal (z-score)", "setting": "[5]", "value": -0.425}, {"measurement": "glycan array binding signal (z-score)", "setting": "[6]", "value": -0.736}, {"measurement": "glycan array binding signal (z-score)", "setting": "[7]", "value": -0.21}, {"measurement": "glycan array binding signal (z-score)", "setting": "[8]", "value": 0.852}, {"measurement": "glycan array binding signal (z-score)", "setting": "[9]", "value": -0.092}, {"measurement": "glycan array binding signal (z-score)", "setting": "[10]", "value": -0.226}, {"measurement": "glycan array binding signal (z-score)", "setting": "[11]", "value": 0.343}, {"measurement": "glycan array binding signal (z-score)", "setting": "[12]", "value": -0.419}, {"measurement": "glycan array binding signal (z-score)", "setting": "[13]", "value": -0.473}, {"measurement": "glycan array binding signal (z-score)", "setting": "[14]", "value": -0.127}, {"measurement": "glycan array binding signal (z-score)", "setting": "[15]", "value": -0.657}, {"measurement": "glycan array binding signal (z-score)", "setting": "[16]", "value": -0.021}, {"measurement": "glycan array binding signal (z-score)", "setting": "[17]", "value": -0.145}, {"measurement": "glycan array binding signal (z-score)", "setting": "[18]", "value": 0.098}, {"measurement": "glycan array binding signal (z-score)", "setting": "[19]", "value": 0.335}, {"measurement": "glycan array binding signal (z-score)", "setting": "[20]", "value": 0.036}, {"measurement": "glycan array binding signal (z-score)", "setting": "[21]", "value": -0.746}, {"measurement": "glycan array binding signal (z-score)", "setting": "[22]", "value": -0.416}, {"measurement": "glycan array binding signal (z-score)", "setting": "[23]", "value": -0.001}, {"measurement": "glycan array binding signal (z-score)", "setting": "[24]", "value": -0.228}, {"measurement": "glycan array binding signal (z-score)", "setting": "[25]", "value": 0.354}, {"measurement": "glycan array binding signal (z-score)", "setting": "[26]", "value": 0.62}, {"measurement": "glycan array binding signal (z-score)", "setting": "[27]", "value": -0.097}, {"measurement": "glycan array binding signal (z-score)", "setting": "[28]", "value": -0.368}, {"measurement": "glycan array binding signal (z-score)", "setting": "[29]", "value": 0.608}, {"measurement": "glycan array binding signal (z-score)", "setting": "[30]", "value": 1.45}, {"measurement": "glycan array binding signal (z-score)", "setting": "[31]", "value": 0.136}, {"measurement": "glycan array binding signal (z-score)", "setting": "[32]", "value": -0.364}, {"measurement": "glycan array binding signal (z-score)", "setting": "[33]", "value": 0.185}, {"measurement": "glycan array binding signal (z-score)", "setting": "[34]", "value": -0.125}, {"measurement": "glycan array binding signal (z-score)", "setting": "[35]", "value": 0.907}, {"measurement": "glycan array binding signal (z-score)", "setting": "[36]", "value": -0.281}, {"measurement": "glycan array binding signal (z-score)", "setting": "[37]", "value": 0.386}]}
